Data as given in PubChem BioAssay AID1224830 (NIAID, 2016).
Here is one part, drawn at random, of about 18,000 reagents tested. Of all reagents, about 2,900 (16%) were called active. 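Calls are made per well; low scores hint the gene aids the LPS response, high scores that it dampens it.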 Repeated entries: four replicate wells of each siRNA pool.

- Assay: 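Host factors that control LPS-induced TNF expression in human macrophages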 (primary screen)
- Cells: human THP-1 monocytic leukaemia cells, TNF dual-luciferase reporter clone, PMA-differentiated to macrophage-like cells
- Reagents: siRNA pool against human genes, 50 nM
- Duration: LPS for 4 h, given about 3 days after siRNA transfection
- Challenge: bacterial LPS (TLR4 ligand), 10 ng/ml
- Measurement: 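TNF firefly reporter luminescence divided by renilla, normalised to the plate median, then turned into a robust z-score for each replicate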
- Scale: TNF reporter robust z-score: higher = stronger TNF reporter response to LPS
- Active means: 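a well is active when its z-score exceeds 2.8 or falls below -1.5; control wells carry no call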

The opening 6 entries, to show the layout:
no.	target	TNF reporter robust z-score	outcome
1	ZC3H11A	1.39	inactive
2	ZC3H11A	1.15	inactive
3	ZC3H11A	0.92	inactive
4	ZC3H11A	2.19	inactive
5	PI4K2A	-0.44	inactive
6	PI4K2A	1.2	inactive

The list itself, from the start:
no.	target	TNF reporter robust z-score	outcome
1	ZC3H11A	1.39	inactive
2	ZC3H11A	1.15	inactive
3	ZC3H11A	0.92	inactive
4	ZC3H11A	2.19	inactive
5	PI4K2A	-0.44	inactive
6	PI4K2A	1.2	inactive
7	PI4K2A	0.64	inactive
8	PI4K2A	1.04	inactive
9	PSMA1	-1.34	inactive
10	PSMA1	0.03	inactive
11	PSMA1	-1.36	inactive
12	PSMA1	-0.66	inactive
13	RHOJ	-0.58	inactive
14	RHOJ	-0.83	inactive
15	RHOJ	-1.13	inactive
16	RHOJ	-0.3	inactive
17	CFAP54	-0.07	inactive
18	CFAP54	-0.48	inactive
19	CFAP54	0.25	inactive
20	CFAP54	0.81	inactive
21	PPP1R7	-0.13	inactive
22	PPP1R7	0.58	inactive
23	PPP1R7	-0.53	inactive
24	PPP1R7	1.39	inactive
25	TBCCD1	-0.84	inactive
26	TBCCD1	-0.72	inactive
27	TBCCD1	-1.06	inactive
28	TBCCD1	-1.22	inactive
29	FUZ	-0.07	inactive
30	FUZ	0.24	inactive
31	FUZ	-0.73	inactive
32	FUZ	-0.14	inactive
33	NLRP12	-1.32	inactive
34	NLRP12	-1.15	inactive
35	NLRP12	-1.01	inactive
36	NLRP12	1.21	inactive
37	CCDC47	1.02	inactive
38	CCDC47	0.57	inactive
39	CCDC47	0.96	inactive
40	CCDC47	1.6	inactive
41	SAMD3	6.58	active
42	SAMD3	1.32	inactive
43	SAMD3	0.46	inactive
44	SAMD3	0.43	inactive
45	SEMA3A	0.58	inactive
46	SEMA3A	1.48	inactive
47	SEMA3A	0.01	inactive
48	SEMA3A	0.1	inactive
